From article PMC13393275

Amino acid sequences for entries named in this document (tags omitted). Residues count along the entry.
UniProt O00487: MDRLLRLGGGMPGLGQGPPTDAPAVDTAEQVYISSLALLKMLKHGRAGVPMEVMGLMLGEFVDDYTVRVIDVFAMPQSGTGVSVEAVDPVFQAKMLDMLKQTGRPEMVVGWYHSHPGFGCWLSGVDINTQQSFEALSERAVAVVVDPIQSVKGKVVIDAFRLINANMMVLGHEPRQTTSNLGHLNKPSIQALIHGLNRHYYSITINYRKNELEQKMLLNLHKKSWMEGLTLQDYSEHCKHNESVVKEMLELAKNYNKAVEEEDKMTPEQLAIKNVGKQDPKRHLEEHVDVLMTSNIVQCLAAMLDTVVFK
UniProt Q8IZ07: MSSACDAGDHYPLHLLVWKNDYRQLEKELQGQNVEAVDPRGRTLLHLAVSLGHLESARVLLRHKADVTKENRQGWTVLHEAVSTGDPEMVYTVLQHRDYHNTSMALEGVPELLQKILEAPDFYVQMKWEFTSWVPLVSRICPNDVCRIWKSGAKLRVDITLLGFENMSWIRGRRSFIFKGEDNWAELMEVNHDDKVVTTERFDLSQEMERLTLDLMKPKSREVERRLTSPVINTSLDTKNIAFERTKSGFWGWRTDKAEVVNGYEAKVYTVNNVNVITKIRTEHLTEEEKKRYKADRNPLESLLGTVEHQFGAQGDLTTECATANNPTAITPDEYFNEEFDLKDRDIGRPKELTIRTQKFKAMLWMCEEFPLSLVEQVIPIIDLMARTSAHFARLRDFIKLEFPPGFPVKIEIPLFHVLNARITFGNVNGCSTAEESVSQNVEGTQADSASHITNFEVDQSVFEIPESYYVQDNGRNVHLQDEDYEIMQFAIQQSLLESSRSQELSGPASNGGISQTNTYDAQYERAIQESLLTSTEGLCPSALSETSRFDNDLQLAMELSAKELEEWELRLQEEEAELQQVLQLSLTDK
UniProt P11362, residues 22-822: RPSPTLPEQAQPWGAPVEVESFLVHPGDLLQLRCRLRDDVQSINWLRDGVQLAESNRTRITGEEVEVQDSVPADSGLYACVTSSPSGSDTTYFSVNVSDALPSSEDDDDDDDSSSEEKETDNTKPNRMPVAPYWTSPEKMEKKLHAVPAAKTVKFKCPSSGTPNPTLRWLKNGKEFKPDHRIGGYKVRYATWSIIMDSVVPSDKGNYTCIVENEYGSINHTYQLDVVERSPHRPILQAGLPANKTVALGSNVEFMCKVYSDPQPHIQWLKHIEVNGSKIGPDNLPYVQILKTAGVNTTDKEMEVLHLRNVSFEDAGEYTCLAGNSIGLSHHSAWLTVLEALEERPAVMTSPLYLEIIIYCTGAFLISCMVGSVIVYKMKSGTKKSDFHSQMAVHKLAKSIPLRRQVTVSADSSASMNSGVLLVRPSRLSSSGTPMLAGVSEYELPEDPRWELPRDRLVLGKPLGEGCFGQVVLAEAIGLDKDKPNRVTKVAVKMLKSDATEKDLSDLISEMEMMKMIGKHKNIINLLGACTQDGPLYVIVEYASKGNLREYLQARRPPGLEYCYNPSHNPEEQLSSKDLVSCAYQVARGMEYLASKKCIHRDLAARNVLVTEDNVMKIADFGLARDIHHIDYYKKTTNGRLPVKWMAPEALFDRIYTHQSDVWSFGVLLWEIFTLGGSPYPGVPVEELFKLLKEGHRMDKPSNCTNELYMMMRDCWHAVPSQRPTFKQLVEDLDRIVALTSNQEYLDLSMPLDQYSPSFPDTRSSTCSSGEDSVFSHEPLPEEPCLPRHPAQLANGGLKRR
UniProt P21802, residues 22-821: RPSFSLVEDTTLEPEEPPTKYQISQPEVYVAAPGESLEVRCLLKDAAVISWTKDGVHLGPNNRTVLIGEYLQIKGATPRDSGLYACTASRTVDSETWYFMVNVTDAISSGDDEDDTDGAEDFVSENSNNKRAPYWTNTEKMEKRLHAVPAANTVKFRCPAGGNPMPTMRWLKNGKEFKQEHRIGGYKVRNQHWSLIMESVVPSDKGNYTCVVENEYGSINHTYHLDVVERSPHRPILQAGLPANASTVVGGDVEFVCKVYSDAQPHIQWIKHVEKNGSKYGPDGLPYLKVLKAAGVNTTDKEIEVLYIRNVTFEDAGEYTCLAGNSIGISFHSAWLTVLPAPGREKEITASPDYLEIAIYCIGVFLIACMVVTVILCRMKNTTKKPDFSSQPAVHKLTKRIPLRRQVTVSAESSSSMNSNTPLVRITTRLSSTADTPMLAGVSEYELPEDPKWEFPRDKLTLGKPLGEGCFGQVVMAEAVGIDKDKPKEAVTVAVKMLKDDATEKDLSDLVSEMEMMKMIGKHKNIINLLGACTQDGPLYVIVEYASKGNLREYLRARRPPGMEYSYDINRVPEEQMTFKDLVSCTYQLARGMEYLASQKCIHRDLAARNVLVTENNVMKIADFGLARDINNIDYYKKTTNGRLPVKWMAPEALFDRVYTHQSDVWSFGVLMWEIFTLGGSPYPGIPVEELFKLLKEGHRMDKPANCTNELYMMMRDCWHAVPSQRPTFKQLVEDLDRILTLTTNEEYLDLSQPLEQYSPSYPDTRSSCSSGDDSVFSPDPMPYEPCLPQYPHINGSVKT
UniProt P22607, residues 23-806: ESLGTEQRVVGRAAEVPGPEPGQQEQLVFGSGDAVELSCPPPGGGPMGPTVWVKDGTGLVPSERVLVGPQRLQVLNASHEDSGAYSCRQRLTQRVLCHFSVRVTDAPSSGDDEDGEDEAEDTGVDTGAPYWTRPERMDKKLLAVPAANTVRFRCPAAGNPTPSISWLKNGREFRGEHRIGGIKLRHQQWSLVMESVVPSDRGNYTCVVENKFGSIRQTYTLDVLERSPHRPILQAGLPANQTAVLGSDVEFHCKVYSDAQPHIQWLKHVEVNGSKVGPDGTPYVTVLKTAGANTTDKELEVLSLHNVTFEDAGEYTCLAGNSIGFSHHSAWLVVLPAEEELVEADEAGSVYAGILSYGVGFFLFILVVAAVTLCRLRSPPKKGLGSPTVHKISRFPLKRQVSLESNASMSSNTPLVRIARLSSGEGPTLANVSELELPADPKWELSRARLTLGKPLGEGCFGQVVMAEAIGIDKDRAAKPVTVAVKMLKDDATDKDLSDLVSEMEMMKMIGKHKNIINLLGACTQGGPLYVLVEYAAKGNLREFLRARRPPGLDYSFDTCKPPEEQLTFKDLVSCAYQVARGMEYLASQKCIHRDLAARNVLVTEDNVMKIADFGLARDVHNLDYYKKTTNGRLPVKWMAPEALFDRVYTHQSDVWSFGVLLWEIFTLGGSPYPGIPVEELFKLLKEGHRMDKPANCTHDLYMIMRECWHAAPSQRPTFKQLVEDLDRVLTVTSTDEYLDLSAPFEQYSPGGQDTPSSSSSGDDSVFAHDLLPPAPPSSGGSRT
UniProt Q92615: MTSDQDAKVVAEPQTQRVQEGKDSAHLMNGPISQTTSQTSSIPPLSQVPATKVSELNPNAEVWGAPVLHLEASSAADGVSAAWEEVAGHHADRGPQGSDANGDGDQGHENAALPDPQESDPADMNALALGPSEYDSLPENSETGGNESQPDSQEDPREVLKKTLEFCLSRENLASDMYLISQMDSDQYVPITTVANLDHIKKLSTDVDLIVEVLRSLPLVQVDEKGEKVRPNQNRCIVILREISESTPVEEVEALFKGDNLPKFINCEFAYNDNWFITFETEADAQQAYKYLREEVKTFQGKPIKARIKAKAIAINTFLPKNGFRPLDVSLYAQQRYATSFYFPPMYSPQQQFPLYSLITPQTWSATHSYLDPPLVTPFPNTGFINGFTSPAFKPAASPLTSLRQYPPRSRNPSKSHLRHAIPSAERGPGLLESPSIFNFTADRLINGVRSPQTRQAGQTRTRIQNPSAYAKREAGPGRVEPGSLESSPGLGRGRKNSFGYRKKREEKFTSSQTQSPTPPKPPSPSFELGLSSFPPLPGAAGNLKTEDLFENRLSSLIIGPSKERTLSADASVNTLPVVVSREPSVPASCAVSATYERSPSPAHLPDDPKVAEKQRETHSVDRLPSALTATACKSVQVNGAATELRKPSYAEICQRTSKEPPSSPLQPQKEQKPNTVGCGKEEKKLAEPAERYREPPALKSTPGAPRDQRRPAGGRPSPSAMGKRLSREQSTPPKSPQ
UniProt Q9Y605: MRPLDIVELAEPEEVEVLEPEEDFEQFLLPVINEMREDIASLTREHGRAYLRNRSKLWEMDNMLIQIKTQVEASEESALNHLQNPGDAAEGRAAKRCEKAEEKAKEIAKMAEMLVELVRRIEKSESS
UniProt Q08AE8: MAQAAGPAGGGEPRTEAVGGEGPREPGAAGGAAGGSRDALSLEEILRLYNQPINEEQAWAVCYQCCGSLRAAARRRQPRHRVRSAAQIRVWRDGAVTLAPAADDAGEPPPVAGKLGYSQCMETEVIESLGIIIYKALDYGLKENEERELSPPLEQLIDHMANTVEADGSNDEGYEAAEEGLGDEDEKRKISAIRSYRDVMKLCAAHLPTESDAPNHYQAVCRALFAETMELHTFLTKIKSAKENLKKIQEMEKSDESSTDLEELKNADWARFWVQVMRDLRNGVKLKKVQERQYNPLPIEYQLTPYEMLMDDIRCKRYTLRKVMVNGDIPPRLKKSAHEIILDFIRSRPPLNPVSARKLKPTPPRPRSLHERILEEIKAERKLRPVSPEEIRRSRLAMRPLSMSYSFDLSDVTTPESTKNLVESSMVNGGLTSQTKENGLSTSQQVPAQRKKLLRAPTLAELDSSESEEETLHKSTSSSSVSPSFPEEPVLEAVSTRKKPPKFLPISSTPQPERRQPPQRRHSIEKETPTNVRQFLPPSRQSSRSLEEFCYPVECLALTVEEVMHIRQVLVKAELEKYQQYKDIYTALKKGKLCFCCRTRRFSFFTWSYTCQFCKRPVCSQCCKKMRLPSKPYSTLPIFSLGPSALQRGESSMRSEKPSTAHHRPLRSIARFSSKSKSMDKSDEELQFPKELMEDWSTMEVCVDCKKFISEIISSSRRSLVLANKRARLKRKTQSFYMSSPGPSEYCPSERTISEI
UniProt P51116: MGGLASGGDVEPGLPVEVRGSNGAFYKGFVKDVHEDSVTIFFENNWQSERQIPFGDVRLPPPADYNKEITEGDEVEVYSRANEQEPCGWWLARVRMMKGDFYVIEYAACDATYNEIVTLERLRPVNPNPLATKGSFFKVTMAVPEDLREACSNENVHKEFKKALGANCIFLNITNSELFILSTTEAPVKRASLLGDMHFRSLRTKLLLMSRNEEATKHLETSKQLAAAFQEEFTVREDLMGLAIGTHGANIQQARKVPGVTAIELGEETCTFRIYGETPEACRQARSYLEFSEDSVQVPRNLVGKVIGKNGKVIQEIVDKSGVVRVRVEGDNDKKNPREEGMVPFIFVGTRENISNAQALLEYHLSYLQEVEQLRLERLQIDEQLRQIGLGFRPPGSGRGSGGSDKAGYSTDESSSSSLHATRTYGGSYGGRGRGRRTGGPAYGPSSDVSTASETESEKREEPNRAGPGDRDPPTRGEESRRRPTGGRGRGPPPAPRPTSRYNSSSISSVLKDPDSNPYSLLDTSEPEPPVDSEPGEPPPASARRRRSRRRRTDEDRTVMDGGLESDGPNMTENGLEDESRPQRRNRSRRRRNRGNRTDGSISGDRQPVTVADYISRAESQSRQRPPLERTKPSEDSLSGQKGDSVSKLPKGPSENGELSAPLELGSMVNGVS
UniProt P61764: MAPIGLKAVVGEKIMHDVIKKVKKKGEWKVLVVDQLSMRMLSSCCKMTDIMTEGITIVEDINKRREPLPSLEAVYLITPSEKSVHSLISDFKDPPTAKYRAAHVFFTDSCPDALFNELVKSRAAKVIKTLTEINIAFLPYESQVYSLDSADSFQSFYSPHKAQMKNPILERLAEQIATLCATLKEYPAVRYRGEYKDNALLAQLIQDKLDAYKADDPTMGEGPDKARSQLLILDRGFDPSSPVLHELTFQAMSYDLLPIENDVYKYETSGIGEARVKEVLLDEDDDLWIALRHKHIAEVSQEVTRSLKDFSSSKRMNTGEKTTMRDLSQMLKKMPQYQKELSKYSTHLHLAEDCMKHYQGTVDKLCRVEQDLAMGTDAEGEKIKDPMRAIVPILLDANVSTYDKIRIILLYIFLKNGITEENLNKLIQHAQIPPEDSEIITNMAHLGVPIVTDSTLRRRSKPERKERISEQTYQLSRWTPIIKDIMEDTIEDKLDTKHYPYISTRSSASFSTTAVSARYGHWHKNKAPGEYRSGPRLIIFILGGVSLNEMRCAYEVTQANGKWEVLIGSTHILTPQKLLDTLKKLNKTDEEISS
UniProt P49770: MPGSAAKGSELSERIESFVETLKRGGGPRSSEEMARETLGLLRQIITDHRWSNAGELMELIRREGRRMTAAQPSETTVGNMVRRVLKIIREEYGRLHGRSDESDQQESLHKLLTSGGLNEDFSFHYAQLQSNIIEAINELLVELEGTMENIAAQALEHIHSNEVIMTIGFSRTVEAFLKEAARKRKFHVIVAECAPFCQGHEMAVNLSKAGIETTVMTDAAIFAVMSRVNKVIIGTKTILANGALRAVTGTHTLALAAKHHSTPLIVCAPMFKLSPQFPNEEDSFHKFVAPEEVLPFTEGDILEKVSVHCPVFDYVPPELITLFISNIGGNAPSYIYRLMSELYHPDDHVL

T1: FRS2-mNeonGreen (human) (UniProt Q8WU20)
T1 sequence: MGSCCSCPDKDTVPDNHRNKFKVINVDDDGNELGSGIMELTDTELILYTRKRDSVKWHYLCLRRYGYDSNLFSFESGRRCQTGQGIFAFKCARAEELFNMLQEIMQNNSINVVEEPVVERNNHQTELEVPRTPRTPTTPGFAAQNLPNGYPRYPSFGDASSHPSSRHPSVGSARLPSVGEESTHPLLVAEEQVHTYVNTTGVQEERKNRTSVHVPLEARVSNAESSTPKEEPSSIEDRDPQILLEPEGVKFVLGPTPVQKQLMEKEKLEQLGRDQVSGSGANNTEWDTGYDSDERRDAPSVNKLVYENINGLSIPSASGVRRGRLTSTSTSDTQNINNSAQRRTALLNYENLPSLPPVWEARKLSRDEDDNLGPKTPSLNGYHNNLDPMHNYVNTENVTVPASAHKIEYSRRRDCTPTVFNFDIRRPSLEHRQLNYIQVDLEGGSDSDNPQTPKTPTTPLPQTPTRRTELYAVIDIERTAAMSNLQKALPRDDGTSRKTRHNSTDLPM

B1: Serine/threonine-protein kinase RIO3 (protein, UniProt O14730 1-519)
chain: MDLVGVASPEPGTAAAWGPSKCPWAIPQNTISCSLADVMSEQLAKELQLEEEAAVFPEVAVAEGPFITGENIDTSSDLMLAQMLQMEYDREYDAQLRREEKKFNGDSKVSISFENYRKVHPYEDSDSSEDEVDWQDTRDDPYRPAKPVPTPKKGFIGKGKDITTKHDEVVCGRKNTARMENFAPEFQVGDGIGMDLKLSNHVFNALKQHAYSEERRSARLHEKKEHSTAEKAVDPKTRLLMYKMVNSGMLETITGCISTGKESVVFHAYGGSMEDEKEDSKVIPTECAIKVFKTTLNEFKNRDKYIKDDFRFKDRFSKLNPRKIIRMWAEKEMHNLARMQRAGIPCPTVVLLKKHILVMSFIGHDQVPAPKLKEVKLNSEEMKEAYYQTLHLMRQLYHECTLVHADLSEYNMLWHAGKVWLIDVSQSVEPTHPHGLEFLFRDCRNVSQFFQKGGVKEALSERELFNAVSGLNITADNEADFLAEIEALEKMNEDHVQKNGRKAASFLKDDGDPPLLYDE
B2: Translation initiation factor eIF-2B subunit alpha (protein, UniProt Q14232 1-305)
chain: MDDKELIEYFKSQMKEDPDMASAVAAIRTLLEFLKRDKGETIQGLRANLTSAIETLCGVDSSVAVSSGGELFLRFISLASLEYSDYSKCKKIMIERGELFLRRISLSRNKIADLCHTFIKDGATILTHAYSRVVLRVLEAAVAAKKRFSVYVTESQPDLSGKKMAKALCHLNVPVTVVLDAAVGYIMEKADLVIVGAEGVVENGGIINKIGTNQMAVCAKAQNKPFYVVAESFKFVRLFPLNQQDVPDKFKYKADTLKVAQTGQDLKEEHPWVDYTAPSLITLLFTDLGVLTPSAVSDELIKLYL
B3: Rho-related GTP-binding protein RhoE (protein, UniProt P61587 1-244)
chain: MKERRASQKLSSKSIMDPNQNVKCKIVVVGDSQCGKTALLHVFAKDCFPENYVPTVFENYTASFEIDTQRIELSLWDTSGSPYYDNVRPLSYPDSDAVLICFDISRPETLDSVLKKWKGEIQEFCPNTKMLLVGCKSDLRTDVSTLVELSNHRQTPVSYDQGANMAKQIGAATYIECSALQSENSVRDIFHVATLACVNKTNKNVKRNKSQRATKRISHMPSRPELSAVATDLRKDKAKSCTVM
B4: HAUS augmin-like complex subunit 5 (protein, UniProt O94927 1-633)
chain: MELAQEARELGCWAVEEMGVPVAARAPESTLRRLCLGQGADIWAYILQHVHSQRTVKKIRGNLLWYGHQDSPQVRRKLELEAAVTRLRAEIQELDQSLELMERDTEAQDTAMEQARQHTQDTQRRALLLRAQAGAMRRQQHTLRDPMQRLQNQLRRLQDMERKAKVDVTFGSLTSAALGLEPVVLRDVRTACTLRAQFLQNLLLPQAKRGSLPTPHDDHFGTSYQQWLSSVETLLTNHPPGHVLAALEHLAAEREAEIRSLCSGDGLGDTEISRPQAPDQSDSSQTLPSMVHLIQEGWRTVGVLVSQRSTLLKERQVLTQRLQGLVEEVERRVLGSSERQVLILGLRRCCLWTELKALHDQSQELQDAAGHRQLLLRELQAKQQRILHWRQLVEETQEQVRLLIKGNSASKTRLCRSPGEVLALVQRKVVPTFEAVAPQSRELLRCLEEEVRHLPHILLGTLLRHRPGELKPLPTVLPSIHQLHPASPRGSSFIALSHKLGLPPGKASELLLPAAASLRQDLLLLQDQRSLWCWDLLHMKTSLPPGLPTQELLQIQASQEKQQKENLGQALKRLEKLLKQALERIPELQGIVGDWWEQPGQAALSEELCQGLSLPQWRLRWVQAQGALQKLCS
B5: AF4/FMR2 family member 1 (protein, UniProt P51825 1-1210)
chain: MAAQSSLYNDDRNLLRIREKERRNQEAHQEKEAFPEKIPLFGEPYKTAKGDELSSRIQNMLGNYEEVKEFLSTKSHTHRLDASENRLGKPKYPLIPDKGSSIPSSSFHTSVHHQSIHTPASGPLSVGNISHNPKMAQPRTEPMPSLHAKSCGPPDSQHLTQDRLGQEGFGSSHHKKGDRRADGDHCASVTDSAPERELSPLISLPSPVPPLSPIHSNQQTLPRTQGSSKVHGSSNNSKGYCPAKSPKDLAVKVHDKETPQDSLVAPAQPPSQTFPPPSLPSKSVAMQQKPTAYVRPMDGQDQAPSESPELKPLPEDYRQQTFEKTDLKVPAKAKLTKLKMPSQSVEQTYSNEVHCVEEILKEMTHSWPPPLTAIHTPSTAEPSKFPFPTKDSQHVSSVTQNQKQYDTSSKTHSNSQQGTSSMLEDDLQLSDSEDSDSEQTPEKPPSSSAPPSAPQSLPEPVASAHSSSAESESTSDSDSSSDSESESSSSDSEENEPLETPAPEPEPPTTNKWQLDNWLTKVSQPAAPPEGPRSTEPPRRHPESKGSSDSATSQEHSESKDPPPKSSSKAPRAPPEAPHPGKRSCQKSPAQQEPPQRQTVGTKQPKKPVKASARAGSRTSLQGEREPGLLPYGSRDQTSKDKPKVKTKGRPRAAASNEPKPAVPPSSEKKKHKSSLPAPSKALSGPEPAKDNVEDRTPEHFALVPLTESQGPPHSGSGSRTSGCRQAVVVQEDSRKDRLPLPLRDTKLLSPLRDTPPPQSLMVKITLDLLSRIPQPPGKGSRQRKAEDKQPPAGKKHSSEKRSSDSSSKLAKKRKGEAERDCDNKKIRLEKEIKSQSSSSSSSHKESSKTKPSRPSSQSSKKEMLPPPPVSSSSQKPAKPALKRSRREADTCGQDPPKSASSTKSNHKDSSIPKQRRVEGKGSRSSSEHKGSSGDTANPFPVPSLPNGNSKPGKPQVKFDKQQADLHMREAKKMKQKAELMTDRVGKAFKYLEAVLSFIECGIATESESQSSKSAYSVYSETVDLIKFIMSLKSFSDATAPTQEKIFAVLCMRCQSILNMAMFRCKKDIAIKYSRTLNKHFESSSKVAQAPSPCIASTGTPSPLSPMPSPASSVGSQSSAGSVGSSGVAATISTPVTIQNMTSSYVTITSHVLTAFDLWEQAEALTRKNKEFFARLSTNVCTLALNSSLVDLVHYTRQGFQQLQELTKTP
B6: Proton-coupled zinc antiporter SLC30A1 (protein, UniProt Q9Y6M5 1-507)
chain: MGCWGRNRGRLLCMLALTFMFMVLEVVVSRVTSSLAMLSDSFHMLSDVLALVVALVAERFARRTHATQKNTFGWIRAEVMGALVNAIFLTGLCFAILLEAIERFIEPHEMQQPLVVLGVGVAGLLVNVLGLCLFHHHSGFSQDSGHGHSHGGHGHGHGLPKGPRVKSTRPGSSDINVAPGEQGPDQEETNTLVANTSNSNGLKLDPADPENPRSGDTVEVQVNGNLVREPDHMELEEDRAGQLNMRGVFLHVLGDALGSVIVVVNALVFYFSWKGCSEGDFCVNPCFPDPCKAFVEIINSTHASVYEAGPCWVLYLDPTLCVVMVCILLYTTYPLLKESALILLQTVPKQIDIRNLIKELRNVEGVEEVHELHVWQLAGSRIIATAHIKCEDPTSYMEVAKTIKDVFHNHGIHATTIQPEFASVGSKSSVVPCELACRTQCALKQCCGTLPQAPSGKDAEKTPAVSISCLELSNNLEKKPRRTKAENIPAVVIEIKNMPNKQPESSL

The molecules below were run against T1, FRS2-mNeonGreen (human) (assay: affinity purification with mass spectrometry; mNeonGreen-Trap IP from bFGF-stimulated (50 ng/mL, 5 min) UW228 FRS2-mNG cells against UW228 WT; on-bead digestion, DIA LC-MS/MS, SAINTexpress; hits log2FC >= 1 and bFDR <= 0.05; n = 3).

binding, binds:
26S proteasome non-ATPase regulatory subunit 14 (from UniProt O00487 1-310)
A-kinase anchor protein 2 (from UniProt Q9Y2D5-3)
Ankyrin repeat domain-containing protein 13A (from UniProt Q8IZ07 1-590)
Condensin complex subunit 1 (from UniProt Q15021 1-1401)
Fibroblast growth factor receptor 1 (from UniProt P11362 22-822)
Fibroblast growth factor receptor 2 (from UniProt P21802 22-821)
Fibroblast growth factor receptor 3 (from UniProt P22607 23-806)
La-related protein 4B (from UniProt Q92615 1-738)
MORF4 family-associated protein 1 (from UniProt Q9Y605 1-127)
Protein spire homolog 1 (from UniProt Q08AE8 1-756)
RNA-binding protein FXR2 (from UniProt P51116 1-673)
Son of sevenless homolog 1 (from UniProt Q07889 1-1333)
Son of sevenless homolog 2 (from UniProt Q07890 1-1332)
Syntaxin-binding protein 1 (from UniProt P61764 1-594)
Translation initiation factor eIF-2B subunit beta (from UniProt P49770 1-351)
Translation initiation factor eIF-2B subunit delta (from UniProt Q9UI10 1-523)
Tyrosine-protein phosphatase non-receptor type 11 (from UniProt Q06124 1-593)
B1
B2
B3
B4
B5
B6

These are yes or no findings as the source states them, for the method shown. In cells and extracts the contact can be indirect. These calls come from enrichment with a bait or labelling near it, and not all partners need be listed.
